Measured values as given in patent US20230218654A1, “COMPOSITIONS AND METHODS FOR TREATING HYPERGLYCEMIA IN TYPE-2 DIABETES” (The Board of Regents of the university of Oklahoma, priority 2020, published 2023).

Tests used:
[1] = system: male C57BL/6J mice fed C or WD; assay: Intervention study: MLN4924 initiated after 8 weeks of WD feeding; format: in vivo; details: WD 16 weeks; 60 mg/kg SQ every other day for last 8 weeks
Protocol: MLN4924 (60 mg/kg, SQ) was given every other day for the last 8 weeks of the 16-week feeding. For both cohorts, body weight was measured weekly. Results are mean ±SEM. n=5-7. “*”, vs C+Veh; “#”, vs. WD+Veh, p<0.05. ns= Not significant.
Male C57BL/6J mice were fed chow or WD for 16 weeks. Vehicle or MLN4924 treatment (60 mg/kg, SQ, once every two days) was initiated after 8 weeks of WD feeding. Analyses were performed after 16 weeks of feeding. Results are mean ± SEM. n=5-8. “*”, vs C+Veh; “#”, vs. WD+Veh, p<0.05. Normalized densitometry was shown in low panel bar graphs.
Male C57BL/6J mice were purchased from the Jackson Laboratory (Bar Harbor, ME). Mice were fed a regular chow (C) diet or a Western diet (WD) that contains 42% fat calories and 0.2% cholesterol content (TD. 88137, Envigo Inc. Indianapolis, IN).
MLN4924 and TAS4464 were purchased from MedChemExpress (MCE, Monmouth Junction, NJ). For cell treatment, MLN4924 and TAS4464 were dissolved in DMSO. Cells were serum starved overnight and then treated with MLN4924, TAS4464 and/or insulin as indicated. For injection in mice, MLN4924 and TAS4464 were first dissolved in DMSO, which was further suspended in 10% (2-hydroxypropyl)-β-cyclodextrin (Sigma, St. Louis, MO). The final solution contains 1% DMSO. The subcutaneous injection volume is 200 µl/mouse.
Lipids were extracted in a mixture of chloroform: methanol (2:1; v: v), dried under nitrogen, and resuspended in isopropanol containing 1% triton X-100. Total cholesterol, free cholesterol and TG were measured with assay kits following the manufacturer’s instruction. Total cholesterol assay kit and TG assay kit were purchased from Pointe Scientific (Canton, MI).
Aspartate aminotransferase (AST) and alanine aminotransferase (ALT) assay kits were purchased from Pointe Scientific (Canton, MI). Free fatty acid assay kit was purchased from Biovision Inc. (Milpitas, CA). Insulin ELISA kit was purchased from Crystal Chem Inc. (Elk Grove Village, IL).
Next investigated was the glucose lowering effect of CRL inhibition in mice rendered obese and insulin resistant by 16-weeks of WD feeding. […] Next conducted was an intervention study in which MLN4924 treatment was initiated after mice were fed WD for 8 weeks that rendered mice obese and insulin resistant. […] In summary, robust evidence is provided herein that pharmacological CRL inhibition is an effective approach to lowering hyperglycemia.

[2] = system: male C57BL/6J mice fed Chow or Western diet; assay: MLN4924 intervention for 9 weeks in 16-week WD-fed mice (Experimental II); format: in vivo
Protocol: Chronic MLN4924 treatment attenuates hepatic steatosis in Western diet-fed mice. Male C57BL/6J mice were fed Chow (C) or Western diet (WD) for 16 weeks. MLN4924 treatment (60 mg/kg, SQ, every other day) was initiated after mice were fed WD for 7 weeks as indicated. Control mice were injected with vehicle. After 16 weeks of feeding, mice were fasted from 9 am to 3 pm and euthanized. Scale bar = 125 µm. […]
WT male C57BL/6J mice were purchased from the Jackson Lab (Bar Harbor, ME). Western diet (TD. 88137, Envigo Inc. Indianapolis, IN) contains 42% fat calories and 0.2% cholesterol. Mice were housed in micro-isolator cages with corn cob bedding under 7 am - 7 pm light cycle and 7 pm -7 am dark cycle. MLN4924 was prepared in 10% 2-hydroxypropyl-b-cyclodextrin to a final concentration of 3 mg/ml. All mice were fasted for 6 h from 9 am to 3 pm before euthanasia. All animals received humane care according to the criteria outlined in the “Guide for the Care and Use of Laboratory Animals.” All animal protocols were approved by the Institutional Animal Care and Use Committee at the University of Kansas Medical Center and the University of Oklahoma Health Sciences Center. […]
Human normal livers (less than 5% steatosis) and histologically confirmed NASH livers were obtained from either the University of Kansas Liver Center or the Liver Tissue Cell Distribution System (LTCDS) at the University of Minnesota. Human and mouse tissue samples were homogenized in 1XRIPA buffer containing 1% SDS and protease inhibitors. After incubation on ice for 1 hour, the samples were centrifugation and supernatant was transferred to a new tube. The protein lysate was mixed with equal volume of 2X laemmli buffer and incubated at 95° C. for 5 minutes and used for SDS-PAGE and immunoblotting. ImageJ software (NIH) was used to determine band intensity.
Total liver RNA was purified with Trizol (Sigma-Aldrich, St. Louis, MO). […] The relative mRNA expression was expressed as 2 ^-ΔΔCt with the control group arbitrarily set as “1”. […]

NS(=O)(=O)OC[C@@H]1C[C@@H](n2ccc3c(N[C@H]4CCc5ccccc54)ncnc32)C[C@@H]1O [MLN4924, ((1S,2S,4R)-4-(4-((1S)-2,3-dihydro-1H-inden-1-ylamino)-7H-pyrrolo[2,3-d]pyrimidin-7-yl)-2-hydroxycyclopentyl) methyl sulfamate]
adiposity as reflected by gonadal fat [1]: did not affect
liver glycogen [1]: did not affect
obesity (body weight) [1]: did not affect
serum fatty acids [1]: did not affect
diet-induced obesity ([2]; SQ 60 mg/kg once every 2 days): did not affect diet-induced obesity
adiposity (gonadal fat pad weight) ([2]; WD-fed mice): does not affect adiposity
circulating (serum free) fatty acids ([2]; WD-fed mice): does not affect circulating fatty acids
